These are yes or no findings as the source states them, for the method shown. In cells and extracts the contact can be indirect. Some binding calls cover weakened binding; strength is not graded here.
Target: Kap60-3FLAG (S. cerevisiae) (UniProt Q02821)
Assay: co-IP

Sequences of proteins named here, by UniProt entry; tags and fusion partners are left off.
UniProt Q02821: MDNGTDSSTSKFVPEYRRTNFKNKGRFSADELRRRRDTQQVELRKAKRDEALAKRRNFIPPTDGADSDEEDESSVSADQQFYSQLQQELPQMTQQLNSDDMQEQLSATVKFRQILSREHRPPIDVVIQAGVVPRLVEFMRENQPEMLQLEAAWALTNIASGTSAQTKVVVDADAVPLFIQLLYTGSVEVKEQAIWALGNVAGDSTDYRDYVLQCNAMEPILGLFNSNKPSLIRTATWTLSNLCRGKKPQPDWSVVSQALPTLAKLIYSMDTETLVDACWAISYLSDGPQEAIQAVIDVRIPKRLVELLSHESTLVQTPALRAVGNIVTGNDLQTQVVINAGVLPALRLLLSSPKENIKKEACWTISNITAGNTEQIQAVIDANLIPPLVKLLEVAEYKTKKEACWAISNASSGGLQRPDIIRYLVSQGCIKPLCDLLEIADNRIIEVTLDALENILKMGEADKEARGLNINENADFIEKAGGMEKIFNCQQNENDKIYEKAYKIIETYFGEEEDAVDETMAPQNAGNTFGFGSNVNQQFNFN

binding: binds
B1: Stu2^WT-3V5 (protein, UniProt P46675 1-888)
chain: MSGEEEVDYTTLPLEERLTYKLWKARLEAYKELNQLFRNSVGDISRDDNIQIYWRDPTLFAQYITDSNVVAQEQAIVALNSLIDAFASSSLKNAHNITLISTWTPLLVEKGLTSSRATTKTQSMSCILSLCGLDTSITQSVELVIPFFEKKLPKLIAAAANCVYELMAAFGLTNVNVQTFLPELLKHVPQLAGHGDRNVRSQTMNLIVEIYKVTGNNSDLLEEILFKKLKPIQVKDLHKLFAKVGDEPSSSKMLFEWEKRELEKKRSQEEEARKRKSILSNDEGEYQIDKDGDTLMGMETDMPPSKQQSGVQIDTFSMLPEETILDKLPKDFQERITSSKWKDRVEALEEFWDSVLSQTKKLKSTSQNYSNLLGIYGHIIQKDANIQAVALAAQSVELICDKLKTPGFSKDYVSLVFTPLLDRTKEKKPSVIEAIRKALLTICKYYDPLASSGRNEDMLKDILEHMKHKTPQIRMECTQLFNASMKEEKDGYSTLQRYLKDEVVPIVIQIVNDTQPAIRTIGFESFAILIKIFGMNTFVKTLEHLDNLKRKKIEETVKTLPNFSIASGSTHSTIETNKQTGPMENKFLLKKSSVLPSKRVASSPLRNDNKSKVNPIGSVASASKPSMVAANNKSRVLLTSKSLATPKNVVANSTDKNEKLIEEYKYRLQKLQNDEMIWTKERQSLLEKMNNTENYKIEMIKENEMLREQLKEAQSKLNEKNIQLRSKEIDVNKLSDRVLSLENELRNMEIELDRNKKRNDTNLQSMGTISSYSIPSSTVSSNYGVKSLSSALPFKEEEDVRRKEDVNYERRSSESIGDLPHRVNSLNIRPYRKNGTGVSSVSDDLDIDFNDSFASEESYKRAAAVTSTLKARIEKMKAKSRREGTTRT
